Results are given in words; binding and its absence hold for the method and conditions named. In cells and extracts the contact can be indirect.
Target: TCF7L2Δ(63-410) (UniProt Q9NQB0)
Assay: co-IP

Amino acid sequences for entries named in this document (tags omitted). A change or cut given only in a name is not applied to a line headed by its entry.
UniProt Q9NQB0: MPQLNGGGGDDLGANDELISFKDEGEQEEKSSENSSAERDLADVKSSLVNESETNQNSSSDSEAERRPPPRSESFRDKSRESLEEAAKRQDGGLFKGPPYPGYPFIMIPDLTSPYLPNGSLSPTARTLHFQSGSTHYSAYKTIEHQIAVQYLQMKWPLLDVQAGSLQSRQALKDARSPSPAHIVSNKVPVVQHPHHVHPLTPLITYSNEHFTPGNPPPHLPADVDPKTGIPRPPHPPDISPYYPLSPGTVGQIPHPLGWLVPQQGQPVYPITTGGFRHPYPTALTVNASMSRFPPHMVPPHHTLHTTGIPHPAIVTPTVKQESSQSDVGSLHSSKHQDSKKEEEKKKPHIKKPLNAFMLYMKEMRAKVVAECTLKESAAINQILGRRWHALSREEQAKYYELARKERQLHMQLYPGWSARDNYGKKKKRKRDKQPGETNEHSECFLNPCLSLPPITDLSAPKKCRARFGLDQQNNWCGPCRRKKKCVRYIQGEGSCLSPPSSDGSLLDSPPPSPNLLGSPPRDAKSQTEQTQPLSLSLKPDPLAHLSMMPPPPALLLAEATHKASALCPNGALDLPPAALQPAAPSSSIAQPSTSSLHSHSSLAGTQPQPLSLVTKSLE
UniProt P40337: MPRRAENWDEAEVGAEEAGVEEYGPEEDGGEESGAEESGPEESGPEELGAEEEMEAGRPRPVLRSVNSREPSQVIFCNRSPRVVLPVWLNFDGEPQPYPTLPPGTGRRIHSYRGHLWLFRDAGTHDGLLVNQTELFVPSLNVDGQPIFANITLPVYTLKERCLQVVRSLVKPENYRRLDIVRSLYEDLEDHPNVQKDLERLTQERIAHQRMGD

With “pVHL (in the co-IP that maps the TCF7L2 domains) (from UniProt P40337 1-213)” the binding was “no binding”.

Reference: article doi:10.1101/2021.10.14.464355
